# Data as given in paper PMC7819943, “Rice protein-binding microarrays: a tool to detect cis-acting elements near promoter regions in rice”.
# This is one part of the list.
# Molecular target: T1, OsSMF1 (Oryza sativa, UniProt Q6ZLB0 1-436)
# T1 sequence: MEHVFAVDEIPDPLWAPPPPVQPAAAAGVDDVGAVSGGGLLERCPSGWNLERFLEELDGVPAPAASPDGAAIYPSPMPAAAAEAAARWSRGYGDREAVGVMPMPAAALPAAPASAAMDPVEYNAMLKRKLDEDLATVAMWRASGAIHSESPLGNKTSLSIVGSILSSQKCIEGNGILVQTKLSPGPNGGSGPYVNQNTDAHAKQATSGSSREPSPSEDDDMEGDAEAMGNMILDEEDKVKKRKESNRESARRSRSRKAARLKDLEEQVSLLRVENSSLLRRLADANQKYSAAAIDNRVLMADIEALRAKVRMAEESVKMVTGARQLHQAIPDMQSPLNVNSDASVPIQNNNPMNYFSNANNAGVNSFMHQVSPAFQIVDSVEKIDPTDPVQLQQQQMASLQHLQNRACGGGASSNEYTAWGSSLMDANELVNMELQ
# Assay: protein-binding microarray (RPBM); PBS, 2% BSA, 51.3 ng/ul salmon testes DNA, 50 uM zinc acetate, 200 nM TF, 25 C, 1 h; high values mean tight binding
# Settings: protein: recombinant; tags: N-terminal polyhistidine and DsRed monomer fusion (pET32a); chain copies: 2; label: CyDye5-dUTP incorporated in the synthesized complementary strand; 3' TTTTT single-stranded linker to array surface; dsDNA, one strand shown
# Procedure, shortened: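 Binding signal is reported as fluorescence intensity per feature (arbitrary units) from an Axon 4000B scanner. Incubation used 200 nM of each Ni–NTA-purified, N-terminally polyhistidine- and DsRed-fused transcription factor from E. coli BL21-CodonPlus on a double-stranded custom Agilent array for 1 h at 25 °C, with 50 µM zinc acetate in the buffer, followed by washing.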
row,Sequence,binding signal
1,CGAGTCTCCCGGGCCCACGCGTCATCCTCTCCATCCCCTCCGGAGTCACCTAGTGCAG,3700 fluorescence intensity (a.u.)
2,GTTGAGCACGATGTCATCGTCGCACTCTCCCGACAGTCATCGGAGTCACCTAGTGCAG,3900 fluorescence intensity (a.u.)
3,AAAGGAGGATCTTGTCCACATCGGATGCAGGGCAGGATAGCGGAGTCACCTAGTGCAG,5400 fluorescence intensity (a.u.)
4,CCAAAGCGCCACCAACTGATGACTGCAACCTCTCATCAACCGGAGTCACCTAGTGCAG,3480 fluorescence intensity (a.u.)
5,GTATTGTGTGTATTTATACATCATGAAAGAATAGAATAAACGGAGTCACCTAGTGCAG,28600 fluorescence intensity (a.u.)
6,CGCTTGCACGCGTGTGTGCAGCGCGGCTGCATGCGTGGAGCGGAGTCACCTAGTGCAG,5600 fluorescence intensity (a.u.)
7,CGAAGAAAGGCATCTGGTCCCGTGACGCTGCCGTGAAACACGGAGTCACCTAGTGCAG,3920 fluorescence intensity (a.u.)
8,AATTCTTCTTCACATGCTTCTTCGCGTCATGCATAAACACCGGAGTCACCTAGTGCAG,3510 fluorescence intensity (a.u.)
9,CCACCACGTCCTCCTCTCCACATCCTTTTCATCTCCCACCCGGAGTCACCTAGTGCAG,5610 fluorescence intensity (a.u.)
10,TTCTTCCTTCAAAATTTCTTTCTCCTACTCAGCATTGCGTCGGAGTCACCTAGTGCAG,4620 fluorescence intensity (a.u.)
11,ACAGCAATATTTATATAACCTTATGGCGTGTCAAACTTTCCGGAGTCACCTAGTGCAG,6530 fluorescence intensity (a.u.)
12,AACTGTTCCTACTATATGCGCCGTGACAAGTGACTCAAATCGGAGTCACCTAGTGCAG,4960 fluorescence intensity (a.u.)
13,ATATATATCCGTATATCCGATGTGACACGCCAAAACTTTACGGAGTCACCTAGTGCAG,3580 fluorescence intensity (a.u.)
14,AGTCTAAATTTTCCCTGGGAAGTCTGAGCTGGATGACAGGCGGAGTCACCTAGTGCAG,4120 fluorescence intensity (a.u.)
15,TTTGTGACTTACTTTATTATCAAAAGTACTTTAAGCATACCGGAGTCACCTAGTGCAG,3160 fluorescence intensity (a.u.)
16,CATCTCGTGCTAGCTACATATATGCGTTGTCAATGACTGTCGGAGTCACCTAGTGCAG,3930 fluorescence intensity (a.u.)
17,GAGGCAGTGTGTTGTGGAGTCGTATGGCGAGTCCTTGTCTCGGAGTCACCTAGTGCAG,3460 fluorescence intensity (a.u.)
18,GCCCCTCGCCAACAACAGGCGCGACGAATCCGGTTCAAATCGGAGTCACCTAGTGCAG,28400 fluorescence intensity (a.u.)
19,ACTGATCGGTCTTGCAAGCTATCGAGCACGCGCAGGCAGACGGAGTCACCTAGTGCAG,20200 fluorescence intensity (a.u.)
20,TAGCTGTTTGACATAACGAGCTAGGCTGATACACTCATACCGGAGTCACCTAGTGCAG,3210 fluorescence intensity (a.u.)
21,TCGTCGATCATCAACCGCATCAGCATCCATCCATCCATCCCGGAGTCACCTAGTGCAG,3210 fluorescence intensity (a.u.)
22,AACATATTACTGTCAACTGATGACTTGGCTGTATTAGAAGCGGAGTCACCTAGTGCAG,4360 fluorescence intensity (a.u.)
23,TTTTAGCGTGTTGTTAATCTCTCTGCAATAGCCTCTGATCCGGAGTCACCTAGTGCAG,4520 fluorescence intensity (a.u.)
24,ACGTGACAACCGTTGCCTACTCATCTGACAGCATTATCCGCGGAGTCACCTAGTGCAG,7020 fluorescence intensity (a.u.)
25,GTTAAATGGCTAAATGACTCATTTAATTCGCATTAGTGATCGGAGTCACCTAGTGCAG,8460 fluorescence intensity (a.u.)
26,GGTTGTGTGGCTAAACGTGGCTAAGTGTGTGTGTGTGCGTCGGAGTCACCTAGTGCAG,5140 fluorescence intensity (a.u.)
27,GCATTATTGGGACCTATATATCTTCTTTGCCACGTACAGTCGGAGTCACCTAGTGCAG,7740 fluorescence intensity (a.u.)

# Two records picked at random from those above, as already listed:
row,Sequence,binding signal
11,ACAGCAATATTTATATAACCTTATGGCGTGTCAAACTTTCCGGAGTCACCTAGTGCAG,6530 fluorescence intensity (a.u.)
24,ACGTGACAACCGTTGCCTACTCATCTGACAGCATTATCCGCGGAGTCACCTAGTGCAG,7020 fluorescence intensity (a.u.)

# Carrying on:

row,Sequence,binding signal
1,TCCCATCAAATCTCCTCCAAACACTTGAGATCCATCCCTGCGGAGTCACCTAGTGCAG,16500 fluorescence intensity (a.u.)
2,CGAGCCGCCTCCGCCACCGCCGCCTCCTTCCGACCAGCCGCGGAGTCACCTAGTGCAG,3530 fluorescence intensity (a.u.)
3,TTTAGTACAAGCCACGTAAATGCCTTAGGGGCCTTGTTGCCGGAGTCACCTAGTGCAG,6180 fluorescence intensity (a.u.)
4,GTATCACCGTGGTATACCACGTCATCTCACGGAGCGGGTTCGGAGTCACCTAGTGCAG,12800 fluorescence intensity (a.u.)
5,GCGAGAGCTCTTCGTCTTCTCCAACTCGACCGGAAGCAAGCGGAGTCACCTAGTGCAG,3940 fluorescence intensity (a.u.)
6,TTCAACCGTGCACTGTACTGTCACGCACGCACATAGTCGACGGAGTCACCTAGTGCAG,3830 fluorescence intensity (a.u.)
7,TCGAGGCGTATGCCGTGGCGTGGCTTCCTGCCCCTGCGCTCGGAGTCACCTAGTGCAG,7240 fluorescence intensity (a.u.)
8,CTCTCCTCCACGCCCACCTCACCTGCCCCTGCGCCTCCGCCGGAGTCACCTAGTGCAG,3920 fluorescence intensity (a.u.)
9,CGAGTTTAAATTTTAGGCTTGACACGAGTGCTTGTATTTACGGAGTCACCTAGTGCAG,4040 fluorescence intensity (a.u.)
10,AGATGGGCTTGAGAATGTGATGTCTCGTTTAATTGGGCCCCGGAGTCACCTAGTGCAG,3310 fluorescence intensity (a.u.)
11,CGACCTCGTCGGCGTCGGCGTCGGCGGCTGGTCAACAACTCGGAGTCACCTAGTGCAG,3140 fluorescence intensity (a.u.)
12,AAGAATTTAAAACACGTGCGCGCGGAAAAGATGAAGGTGGCGGAGTCACCTAGTGCAG,3320 fluorescence intensity (a.u.)
13,CGTTCTTCAACGCCATCGCCACCTCATAAGCCTCTCTACTCGGAGTCACCTAGTGCAG,4850 fluorescence intensity (a.u.)
14,CCGCCGCCGATGCAATCTGACGCGGCGGCGCCGGCCGCCGCGGAGTCACCTAGTGCAG,7220 fluorescence intensity (a.u.)
15,GAGATCAGCAGCGAGAACGCGGGGCCGGGGTGTAGACAGTCGGAGTCACCTAGTGCAG,3810 fluorescence intensity (a.u.)
16,TCCCATCATGTTCACAACTTGCTCCCTGCTTACCTGGTGACGGAGTCACCTAGTGCAG,3150 fluorescence intensity (a.u.)
17,TTGCCACGTAATCGCTACGTCAATGCCACGTGGGACGGAGCGGAGTCACCTAGTGCAG,43800 fluorescence intensity (a.u.)
18,GTTTTGGCACGATATTTGTGGTTTCTAAAGTTAACTAATACGGAGTCACCTAGTGCAG,28300 fluorescence intensity (a.u.)
19,TTAACGAGCCACGCTTACGTTTCTTGGAGTATTTGCCTTTCGGAGTCACCTAGTGCAG,3560 fluorescence intensity (a.u.)
20,GTTTTCTGTCTCTTACGTGTACCTACCCATCGTTGAAACACGGAGTCACCTAGTGCAG,9010 fluorescence intensity (a.u.)
21,GGTCAGCGCTGGCGTCACCCTCCACTCCCTCTCCTTCCGCCGGAGTCACCTAGTGCAG,6540 fluorescence intensity (a.u.)
22,TGTCGTCTTCGCGATGTCCTTCTCATCGTCGTCCCCTCCGCGGAGTCACCTAGTGCAG,3850 fluorescence intensity (a.u.)
23,CGGTCTCACGGTCGCTGCCACCCCGTCCCCACGACGACACCGGAGTCACCTAGTGCAG,5310 fluorescence intensity (a.u.)
24,GTGGTGGTTAATGAAGCTTAAACATGCCGCCGTGTCGATGCGGAGTCACCTAGTGCAG,4940 fluorescence intensity (a.u.)
25,TATTTATTTATTGAAATCCTGCTAAATCATCTACTCCCAACGGAGTCACCTAGTGCAG,4520 fluorescence intensity (a.u.)
26,CGATCCGTTTTCATCCTAGTCAGCGGTCAGAGCAGATATCCGGAGTCACCTAGTGCAG,5660 fluorescence intensity (a.u.)
27,ATTTTCTATATATAGTATTTCTATACATCTAAAGTTTATACGGAGTCACCTAGTGCAG,3490 fluorescence intensity (a.u.)
